Assay [1] deals with T1, mouse Mcm5-His6-Flag (mouse) (UniProt P49718).
T1 sequence: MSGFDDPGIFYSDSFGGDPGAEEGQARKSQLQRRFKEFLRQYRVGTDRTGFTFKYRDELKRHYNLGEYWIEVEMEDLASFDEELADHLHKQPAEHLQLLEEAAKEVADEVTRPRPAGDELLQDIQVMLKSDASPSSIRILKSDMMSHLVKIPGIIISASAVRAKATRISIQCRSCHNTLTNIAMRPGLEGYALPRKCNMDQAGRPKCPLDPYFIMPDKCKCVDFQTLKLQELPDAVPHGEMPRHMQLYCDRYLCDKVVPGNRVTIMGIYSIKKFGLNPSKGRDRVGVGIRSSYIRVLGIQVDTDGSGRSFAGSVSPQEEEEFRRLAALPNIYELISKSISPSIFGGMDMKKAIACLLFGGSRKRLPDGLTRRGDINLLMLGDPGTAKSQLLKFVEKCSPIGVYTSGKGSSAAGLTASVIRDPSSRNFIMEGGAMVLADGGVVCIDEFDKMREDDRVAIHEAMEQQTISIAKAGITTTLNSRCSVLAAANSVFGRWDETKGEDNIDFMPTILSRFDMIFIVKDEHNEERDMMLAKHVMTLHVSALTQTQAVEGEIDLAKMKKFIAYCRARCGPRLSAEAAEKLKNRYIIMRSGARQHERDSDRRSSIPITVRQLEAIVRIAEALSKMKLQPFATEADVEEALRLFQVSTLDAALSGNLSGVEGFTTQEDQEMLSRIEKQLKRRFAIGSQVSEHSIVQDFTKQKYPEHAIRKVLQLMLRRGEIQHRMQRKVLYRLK
The experiment in a line: co-purification; six mouse Mcm subunits co-expressed in insect cells; nickel-agarose, anti-Flag M2 antibody agarose (Flag on Mcm5), glycerol gradient sedimentation.

The chains behind the UniProt entries cited, without tags or fusion partners. Where a name states a change or a piece, a line headed by the entry shows the natural chain unless it says otherwise.
UniProt P97310: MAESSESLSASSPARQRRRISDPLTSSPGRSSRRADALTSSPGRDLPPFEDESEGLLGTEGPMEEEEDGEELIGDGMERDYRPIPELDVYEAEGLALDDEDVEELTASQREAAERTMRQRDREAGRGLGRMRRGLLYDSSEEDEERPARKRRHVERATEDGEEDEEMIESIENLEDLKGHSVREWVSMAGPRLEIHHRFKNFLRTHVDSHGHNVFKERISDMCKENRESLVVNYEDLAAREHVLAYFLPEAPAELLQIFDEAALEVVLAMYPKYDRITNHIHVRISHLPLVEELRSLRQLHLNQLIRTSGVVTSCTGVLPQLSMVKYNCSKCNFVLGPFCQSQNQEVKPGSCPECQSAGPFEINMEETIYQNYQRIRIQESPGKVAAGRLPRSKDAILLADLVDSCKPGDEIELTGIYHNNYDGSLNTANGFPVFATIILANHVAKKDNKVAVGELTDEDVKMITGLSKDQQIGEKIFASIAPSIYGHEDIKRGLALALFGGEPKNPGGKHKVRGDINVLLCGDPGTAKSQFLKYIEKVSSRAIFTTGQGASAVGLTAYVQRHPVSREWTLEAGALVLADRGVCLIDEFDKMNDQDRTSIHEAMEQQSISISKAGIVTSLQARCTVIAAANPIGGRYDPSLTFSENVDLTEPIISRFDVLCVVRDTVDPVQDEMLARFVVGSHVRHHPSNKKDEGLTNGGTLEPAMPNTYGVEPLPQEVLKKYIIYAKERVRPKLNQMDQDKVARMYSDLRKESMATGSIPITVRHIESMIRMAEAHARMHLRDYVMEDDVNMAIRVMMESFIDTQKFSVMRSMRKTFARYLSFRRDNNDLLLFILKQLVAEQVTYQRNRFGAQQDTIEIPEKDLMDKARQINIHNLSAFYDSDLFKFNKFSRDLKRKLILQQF
UniProt Q61881: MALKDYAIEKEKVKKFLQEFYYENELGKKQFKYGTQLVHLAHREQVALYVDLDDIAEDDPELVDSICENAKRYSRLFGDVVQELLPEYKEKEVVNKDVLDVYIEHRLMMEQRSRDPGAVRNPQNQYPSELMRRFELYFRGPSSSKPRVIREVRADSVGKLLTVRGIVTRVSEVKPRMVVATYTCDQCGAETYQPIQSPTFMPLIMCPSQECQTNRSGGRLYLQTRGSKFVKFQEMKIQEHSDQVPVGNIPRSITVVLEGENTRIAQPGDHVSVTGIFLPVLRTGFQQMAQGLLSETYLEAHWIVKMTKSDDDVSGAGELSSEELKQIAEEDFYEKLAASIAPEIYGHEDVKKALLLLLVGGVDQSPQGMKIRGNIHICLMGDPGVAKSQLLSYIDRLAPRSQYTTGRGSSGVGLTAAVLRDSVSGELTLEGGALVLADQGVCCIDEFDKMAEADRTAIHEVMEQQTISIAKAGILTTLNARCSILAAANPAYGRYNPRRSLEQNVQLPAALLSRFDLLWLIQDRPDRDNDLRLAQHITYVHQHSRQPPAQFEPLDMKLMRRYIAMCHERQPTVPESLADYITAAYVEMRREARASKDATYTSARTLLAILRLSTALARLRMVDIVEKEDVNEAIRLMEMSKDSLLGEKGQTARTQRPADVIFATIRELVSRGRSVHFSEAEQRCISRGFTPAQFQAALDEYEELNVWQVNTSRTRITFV

Assay [2] addresses T2, mouse Mcm2∼7 complex (Mcm2/3/4/5/6/7), Flag tag on Mcm5 (mouse) (UniProt P97310+P25206+P49717+P49718+P97311+Q61881). The experiment in a line: co-sedimentation; Mcm2∼7 and human primase, 15-35% glycerol gradient with 1 mM ATP; data not shown; both purified.
For assay [3], the target named is T2, mouse Mcm2∼7 complex (Mcm2/3/4/5/6/7), Flag tag on Mcm5 (mouse). Kind of assay: co-IP; purified Mcm2∼7 (Flag tag on Mcm5) held on anti-Flag M2 antibody agarose beads, mixed with purified primase, His-p48 or GINS, with or without an oligonucleotide, GINS or DNase I; 50 mM Tris-HCl pH 7.5, 100 mM sodium acetate, 5 mM magnesium acetate, 1 mM ATP, 10% glycerol, 0.01% Triton X-100; 2 h at 4°C; eluted with 0.1 M glycine pH 2.8 or boiled; silver or SYPRO staining and Western blotting; both purified. Background: A western blot detects proteins with antibodies after separation by electrophoresis.

The target is the same in assay [4]. Kind of assay: native gel or EMSA; proteins alone or mixed, 25 mM Tris-HCl pH 7.5, 5 mM magnesium acetate, 20 mM 2-mercaptoethanol, 0.01% Triton X-100, 1 mM ATP, 30°C 15 min; 5% native PAGE at 4°C, silver staining; no DNA; both purified.

Results are given in words; binding and its absence hold for the method and conditions named. Some binding calls cover weakened binding; strength is not graded here. Sequences can lack the tags named with a protein.

B1: mouse His6-Mcm4 (protein, UniProt P49717 1-862)
chain: MSSPASTPSRRSSRRGRVTPTQSLRSEESRSSPNRRRRGEDSSTGELLPMPTSPGADLQSPPAQNALFSSPPQMHSLAIPLDFDVSSPLTYGTPSSRVEGTPRSGVRGTPVRQRPDLGSARKGLQVDLQSDGAAAEDIVPSEQSLGQKLVIWGTDVNVATCKENFQRFLQCFTDPLAKEEENVGIDITQPLYMQQLGEINITGEPFLNVNCEHIKSFSKNLYRQLISYPQEVIPTFDMAVNEIFFDRYPDSILEHQIQVRPFNALKTKSMRNLNPEDIDQLITISGMVIRTSQLIPEMQEAFFQCQVCAHTTRVEIDRGRIAEPCSCVHCHTTHSMALIHNRSFFSDKQMIKLQESPEDMPAGQTPHTIVLFAHNDLVDKVQPGDRVNVTGIYRAVPIRVNPRVSNVKSVYKTHIDVIHYRKTDAKRLHGLDEEAEQKLFSEKRVKLLKELSRKPDIYERLASALAPSIYEHEDIKKGILLQLFGGTRKDFSHTGRGKFRAEINILLCGDPGTSKSQLLQYVYNLVPRGQYTSGKGSSAVGLTAYVMKDPETRQLVLQTGALVLSDNGICCIDEFDKMNESTRSVLHEVMEQQTLSIAKAGIICQLNARTSVLAAANPIESQWNPKKTTIENIQLPHTLLSRFDLIFLMLDPQDEAYDRRLAHHLVSLYYQSEEQVEEEFLDMAVLKDYIAYAHSTIMPRLSEEASQALIEAYVNMRKIGSSRGMVSAYPRQLESLIRLAEAHAKVRFSNKVEAIDVEEAKRLHREALKQSATDPRTGIVDISILTTGMSATSRKRKEELAEALRKLILSKGKTPALKYQQLFEDIRGQSDTAITKDMFEEALRALADDDFLTVTGKTVRLL
For the molecule B1, the binding result in assay [1] is given as “binds”.

B2: mouse Mcm3 (protein, UniProt P25206 1-812)
chain: MAGTVVLDDVELREAQRDYLDFLDDEEDQGIYQNKVRELISDNQYRLIVSVNDLRRKNEKRANRLLNNAFEELVAFQRALKDFVASIDATYAKQYEEFYIGLEGSFGSKHVSPRTLTSCFLSCVVCVEGIVTKCSLVRPKVVRSVHYCPATKKTIERRYSDLTTLVAFPSSSVYPTKDEENNPLETEYGLSVYKDHQTITIQEMPEKAPAGQLPRSVDVILDDDLVDKVKPGDRIQVVGTYRCLPGKKGCYTSGTFRTVLIACNVKQMSKDIQPAFSADDIAKIKKFSKTRSKDVFEQLARSLAPSIHGHDYVKKAILCLLLGGVERELENGSHIRGDINILLIGDPSVAKSQLLRYVLCTAPRAIPTTGRGSSGVGLTAAVTTDQETGERRLEAGAMVLADRGVVCIDEFDKMSDMDRTAIHEVMEQGRVTIAKAGIHARLNARCSVLAAANPVYGRYDQYKTPMENIGLQDSLLSRFDLLFIMLDQMDPEQDREISDHVLRMHQYRAPGEQDGDALPLGSSVDILATDDPDFTQDDQQDTRIYEKHDSLLHGTKKKKEKMVSAAFMKKYIHVAKIIKPTLTQESAAYIAEEYSRLRSQDSMSSDTARTSPVTARTLETLIRLATAHAKARMSKTVDLQDAEEAVELVQYAYFKKVLEKEKKRKKASEDESDLEDEEEKSQEDTEQKRKRRKTHAKDGESYDPYDFSEAETQMPQVHTPKTDDSQEKTDDSQETQDSQKVELSEPRLKAFKAALLEVFQEAHEQSVGMLHLTESINRNREEPFSSEEIQACLSRMQDDNQVMVSEGIVFLI
With B2, the binding entry in assay [1] was “binds”.

B3: mouse Mcm6 (protein, UniProt P97311 1-821)
chain: MDLAAAAEPGAGSQHPEVRDEVAEKCQKLFLDFLEEFQGSDGEIKYLQFAEELIRPERNTLVVSFADLEQFNQQLSTTIQEEFYRVYPYLCRALKTFVKDRKEIPFAKDFYVAFQDLPTRHKIRELTSSRIGLLTRISGQVVRTHPVHPELVSGTFLCLDCQTVIKDVEQQFKYTQPNICRNPVCANRKRFLLDTNKSRFVDFQKVRIQETQAELPRGSIPRSLEVILRAEAVESAQAGDRCDFTGALIVVPDVSKLSTPGARAETNSRVSGADGYETEGIRGLRALGVRDLSYRLVFLACHVAPTNPRFGGKELRDEEQTAESIKNQMTVKEWEKVFEMSQDKNLYHNLCTSLFPTIHGNDEVKRGVLLMLFGGVPKTTGEGTSLRGDINVCIVGDPSTAKSQFLKHVDEFSPRAVYTSGKASSAAGLTAAVVRDEESHEFVIEAGALMLADNGVCCIDEFDKMDMRDQVAIHEAMEQQTISITKAGVKATLNARTSILAAANPVSGHYDRSKSLKQNINLSAPIMSRFDLFFILVDECNEVTDYAIARRIVDLHSRIEESIDRVYSLDDIRRYLLFARQFKPKISKESEDFIVEQYKRLRQRDGSGVTKSSWRITVRQLESMIRLSESMARMHCCDEVQPKHVKEAFRLLNKSIIRVETPDVNLDQEEEIQMETDEGQGGVNGHADSPAPVNRFNGSSEDASQETVSKPSLRLGFAEYCRISNLIVLHLRKMEEEEDESALKRSELVNWYLKEIESEIDSEEELINKKTIIEKVVHRLTHYDHVLIELTQAGLKGSSEGSESYEEDPYLVVNPNYLLED
Regarding B3, the binding entry in assay [1] is “binds”.

B4: human DNA primase p48/p58 hetero-dimeric complex (His-tagged p58, non-tagged p48) (complex, UniProt P49642 1-420; P49643 1-509)
chain 1: METFDPTELPELLKLYYRRLFPYSQYYRWLNYGGVIKNYFQHREFSFTLKDDIYIRYQSFNNQSDLEKEMQKMNPYKIDIGAVYSHRPNQHNTVKLGAFQAQEKELVFDIDMTDYDDVRRCCSSADICPKCWTLMTMAIRIIDRALKEDFGFKHRLWVYSGRRGVHCWVCDESVRKLSSAVRSGIVEYLSLVKGGQDVKKKVHLSEKIHPFIRKSINIIKKYFEEYALVNQDILENKESWDKILALVPETIHDELQQSFQKSHNSLQRWEHLKKVASRYQNNIKNDKYGPWLEWEIMLQYCFPRLDINVSKGINHLLKSPFSVHPKTGRISVPIDLQKVDQFDPFTVPTISFICRELDAISTNEEEKEENEAESDVKHRTRDYKKTSLAPYVKVFEHFLENLDKSRKGELLKKSDLQKDF
chain 2: MEFSGRKWRKLRLAGDQRNASYPHCLQFYLQPPSENISLIEFENLAIDRVKLLKSVENLGVSYVKGTEQYQSKLESELRKLKFSYRENLEDEYEPRRRDHISHFILRLAYCQSEELRRWFIQQEMDLLRFRFSILPKDKIQDFLKDSQLQFEAISDEEKTLREQEIVASSPSLSGLKLGFESIYKIPFADALDLFRGRKVYLEDGFAYVPLKDIVAIILNEFRAKLSKALALTARSLPAVQSDERLQPLLNHLSHSYTGQDYSTQGNVGKISLDQIDLLSTKSFPPCMRQLHKALRENHHLRHGGRMQYGLFLKGIGLTLEQALQFWKQEFIKGKMDPDKFDKGYSYNIRHSFGKEGKRTDYTPFSCLKIILSNPPSQGDYHGCPFRHSDPELLKQKLQSYKISPGGISQILDLVKGTHYQVACQKYFEMIHNVDDCGFSLNHPNQFFCESQRILNGGKDIKKEPIQPETPQPKPSVQKTKDASSALASLNSSLEMDMEGLEDYFSEDS
As to B4, the binding result is “binds” in assay [2], “binds” in assay [3] and “binds weakly” in assay [4].

These data come from article PMC3748026.
